Binding data for two molecules are collected here from doi:10.1101/733147 (bioRxiv, 2020).

Holding throughout (experiment): split reporter
The target in test [1] is T1, ACVR1, split beta-galactosidase fusion in U2OS cells (UniProt Q04771).
T1 sequence: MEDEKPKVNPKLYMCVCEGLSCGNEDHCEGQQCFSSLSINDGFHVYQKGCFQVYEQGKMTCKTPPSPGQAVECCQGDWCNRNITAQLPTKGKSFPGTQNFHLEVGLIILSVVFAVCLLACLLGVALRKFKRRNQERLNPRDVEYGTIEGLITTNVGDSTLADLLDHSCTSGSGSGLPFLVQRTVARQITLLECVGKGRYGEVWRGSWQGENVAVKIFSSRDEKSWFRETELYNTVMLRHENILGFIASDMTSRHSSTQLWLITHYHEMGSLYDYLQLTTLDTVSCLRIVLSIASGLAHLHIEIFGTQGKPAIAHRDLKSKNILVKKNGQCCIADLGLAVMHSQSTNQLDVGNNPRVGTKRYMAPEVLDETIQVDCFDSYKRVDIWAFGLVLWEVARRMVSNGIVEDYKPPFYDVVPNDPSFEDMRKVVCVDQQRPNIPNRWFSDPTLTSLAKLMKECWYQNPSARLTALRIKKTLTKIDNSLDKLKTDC

For test [2], the target named is T2, TGFBR1, split beta-galactosidase fusion in U2OS cells (UniProt P36897).
T2 sequence: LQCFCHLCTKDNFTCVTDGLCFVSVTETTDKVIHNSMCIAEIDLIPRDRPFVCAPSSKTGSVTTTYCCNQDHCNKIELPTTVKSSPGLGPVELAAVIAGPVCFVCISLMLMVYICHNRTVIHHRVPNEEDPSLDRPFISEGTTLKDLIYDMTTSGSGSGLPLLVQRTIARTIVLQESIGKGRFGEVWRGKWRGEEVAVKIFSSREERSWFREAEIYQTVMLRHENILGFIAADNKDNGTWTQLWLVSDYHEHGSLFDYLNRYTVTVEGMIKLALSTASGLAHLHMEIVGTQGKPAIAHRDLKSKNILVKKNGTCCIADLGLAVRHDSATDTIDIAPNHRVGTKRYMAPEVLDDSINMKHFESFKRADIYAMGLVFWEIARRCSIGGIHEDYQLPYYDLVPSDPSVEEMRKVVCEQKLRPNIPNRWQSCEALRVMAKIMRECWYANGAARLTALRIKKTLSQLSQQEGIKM

Test [3] addresses T3, ACVR1, split beta-galactosidase fusion in U2OS cells, Q04771.
T3 chain: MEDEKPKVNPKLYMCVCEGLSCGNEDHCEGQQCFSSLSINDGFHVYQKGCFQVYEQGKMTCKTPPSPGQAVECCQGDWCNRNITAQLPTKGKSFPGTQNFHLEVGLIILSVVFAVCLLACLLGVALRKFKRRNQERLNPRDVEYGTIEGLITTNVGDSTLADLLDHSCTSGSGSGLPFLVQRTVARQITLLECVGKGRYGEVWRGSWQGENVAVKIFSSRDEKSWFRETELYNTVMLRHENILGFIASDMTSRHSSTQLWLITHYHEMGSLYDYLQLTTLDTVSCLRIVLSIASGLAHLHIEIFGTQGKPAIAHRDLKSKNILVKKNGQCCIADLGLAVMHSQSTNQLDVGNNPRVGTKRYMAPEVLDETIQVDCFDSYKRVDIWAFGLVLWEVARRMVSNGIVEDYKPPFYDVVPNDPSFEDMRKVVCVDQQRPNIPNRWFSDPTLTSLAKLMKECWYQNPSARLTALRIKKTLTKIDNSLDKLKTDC
As to conditions: remark: other sources report otherwise.

Test [4] has as its target T4, TGFBR1, split beta-galactosidase fusion in U2OS cells, P36897.
T4 chain: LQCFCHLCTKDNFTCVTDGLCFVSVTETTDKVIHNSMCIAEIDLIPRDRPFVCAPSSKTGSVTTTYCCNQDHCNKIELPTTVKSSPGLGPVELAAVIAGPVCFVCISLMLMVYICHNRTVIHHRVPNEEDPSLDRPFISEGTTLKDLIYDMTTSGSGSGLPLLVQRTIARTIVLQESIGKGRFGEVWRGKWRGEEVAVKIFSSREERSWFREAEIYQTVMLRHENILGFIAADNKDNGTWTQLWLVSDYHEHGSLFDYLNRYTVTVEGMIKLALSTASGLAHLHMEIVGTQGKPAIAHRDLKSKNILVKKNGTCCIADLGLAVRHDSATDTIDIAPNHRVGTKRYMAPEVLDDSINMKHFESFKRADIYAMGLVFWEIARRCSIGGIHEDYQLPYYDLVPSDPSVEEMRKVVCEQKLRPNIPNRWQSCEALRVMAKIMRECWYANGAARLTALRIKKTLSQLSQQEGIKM
As to conditions: remark: other sources report otherwise.

These are yes or no findings as the source states them, for the method shown. In cells and extracts the contact can be indirect. Some binding calls cover weakened binding; strength is not graded here. Tags and fused reporters may be left off the sequences shown.

B1: Activin A.ΔD406 (ligand)
chain: GLECDGKVNICCKKQFFVSFKDIGWNDWIIAPSGYHANYCEGECPSHIAGTSGSSLSFHSTVINHYRMRGHSPFANLKSCCVPTKLRPMSMLYYDGQNIIKKDIQNMIVEECGCS
For the molecule B1, the binding result in test [1] is recorded as “binds weakly”; in test [2] it was “binds”.

B2: Activin A (wild type, mature dimer), P08476 311-426 (ligand)
chain: GLECDGKVNICCKKQFFVSFKDIGWNDWIIAPSGYHANYCEGECPSHIAGTSGSSLSFHSTVINHYRMRGHSPFANLKSCCVPTKLRPMSMLYYDDGQNIIKKDIQNMIVEECGCS
Consider B2, for which the binding result in test [3] and in test [4] was “binds” in each case.
